We go through 64 compounds from PubChem BioAssay AID445 (National Center for Advancing Translational Sciences (NCATS), 2006).

Some of the results follow. The main result of the screen is listed elsewhere. These columns were measured beside it and carry no call. Compounds called inactive in the main read-out are mostly missing here. Words in brackets tell the shape of the fitted curve; partial curves, single points and poor fits give uncertain potencies.

The assay can be described thus: IkB Signaling. To be noted: ABC-DLBCL IkBa-CBG/CBR dual luciferase ratio (green luciferase fused to IkBa over red control in OCI-Ly3 lymphoma cells), 4 h; measured here: control luc red channel unless noted. A digest of the protocol:
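Curves were fitted separately to fusion (green), unfused (red) and ratio luminescence, then classed by r2, magnitude and activity. Cells: OCI-Ly3, 4 h compound plus doxycycline at 37C; 10 uM MG-132 defined full response.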
Broadly, the AC50 is the concentration giving half of the maximal activity seen. `COc1ccc(S(=O)(=O)N(CCc2ccccc2)CC(=O)Nc2cc(C)cc(C)c2)cc1OC`: the AC50 was 10 µM [falling, partial curve].
Then `COc1ccccc1N1CCN(S(=O)(=O)CCNC(=O)C(c2ccccc2)c2ccccc2)CC1`, with 15.8 µM [falling, partial curve, poor fit]; and `Cc1ccc(C)c2[nH]c(=O)c(CN(CCN3CCCC3)C(=O)Nc3cccc(Cl)c3)cc12`, with 25.1 µM [falling, partial curve]; and `Cc1ccc2c(c1)c(C)c(C)n2CC(O)Cn1nnc2ccccc21` (centres undefined), with 39.8 µM [falling, single point].
As to `CCN(CC)Cc1c[nH]c2c(C(=O)OC)cccc12`, the AC50 is 6.31 µM [falling, partial curve].
Then `CCOC(=O)c1[nH]c(C)c(CCC(=O)Nc2cc(Cl)c(OC)cc2OC)c1C`, with 15.8 µM [falling, single point].
For `CCC(C)NC(=O)c1cn(CC)c2ccc(S(=O)(=O)N3CCc4ccccc4C3)cc2c1=O` (centres undefined) the value was 15.8 µM [falling, partial curve]; for `O=C(NCc1ccccc1Cl)c1ccc2c(c1)N(Cc1ccccc1)CCS2`, 10 µM [falling, partial curve].
For `Cc1ccccc1C(=O)Nc1ccccc1-c1nc(-c2ccccc2)no1` the value was 0.002 µM [rising, full curve].
As to `CCOc1ccc2nc(N3CCCC(C(=O)NCCc4ccc(C)cc4)C3)sc2c1` (centres undefined), the AC50 was 0.0316 µM [falling, full curve, poor fit].
Then `CC(C(=O)Nc1ccccc1)n1nnc2sc3c(c2c1=O)CCCC3` (centres undefined), with 20 µM [falling, partial curve]; and `Cc1nc2c(oc3ccccc32)c(=O)o1`, with 3.98 µM [falling, partial curve].
Then `COc1ccc(NC(=O)CN2CCN(CC(=O)Nc3ccccc3Cl)CC2)cc1Cl`, with 15.8 µM [falling, partial curve]; and `Cc1cccc(NC(=O)Nc2nnc(N3CCCC3)s2)c1`, with 12.6 µM [falling, partial curve].
For `CCCCn1c(CNC(=O)C23CC4CC(CC(C4)C2)C3)nnc1SCC(=O)Nc1ccc(F)cc1` the value was 20 µM [falling, partial curve]; for `O=C(CSc1nnc(-c2c[nH]c3ccccc23)n1-c1ccc(F)cc1)NCc1ccco1`, 15.8 µM [falling, partial curve].
On to `Cc1ccc(NC(=O)C2CCCN2S(=O)(=O)c2ccc3nc(-c4ccccc4)[nH]c3c2)cc1C` (centres undefined), for which the AC50 was 25.1 µM [falling, partial curve].
For `CCOC(=O)N1CCN(C(=O)CSCC(=O)Nc2nc(-c3ccc(Cl)s3)cs2)CC1` the value was 3.16 µM [falling, full curve]; for `CC(C)C(=O)Nc1cccc(C(=O)Nc2nnc(C(F)(F)F)s2)c1`, 15.8 µM [falling, partial curve]; for `CCOc1ccccc1NC(=O)CCc1c(C)nc2cc(-c3ccccc3)nn2c1C`, 10 µM [falling, partial curve].
Then `COc1cccc(NC(=O)Cn2c(=O)n(CCc3cccc(C)c3)c(=O)c3ccccc32)c1`, with 15.8 µM [falling, partial curve].
For `Cc1cccc(NC(=O)c2c(NC(=O)c3ccco3)sc3c2CCC(C)C3)c1` (centres undefined) the value was 3.98 µM [falling, full curve]; for `O=C(NCc1ccccc1Cl)c1ccc(-n2cnc3cccnc32)cc1`, 25.1 µM [falling, single point].
On to `CCN(CC)C(=O)CSc1ncnc2c(-c3cccs3)nsc12`, for which the AC50 was 25.1 µM [falling, partial curve].
For `Cn1c(/C(C#N)=C/c2ccc(C(F)(F)F)cc2)nc2ccccc21` the value was 39.8 µM [falling, single point]; for `Cc1ccc(CNC(=O)CSCc2nc(-c3cccc(C)c3)oc2C)cc1`, 25.1 µM [falling, partial curve].
Then `CCCN(CCC)C(=O)Cn1c(=O)n(-c2ccc(Cl)c(Cl)c2)c(=O)c2c(C)c(C(=O)N(C)C)sc21`, with 3.98 µM [rising, partial curve]; and `CCOc1ccc(OCC)c(NC(=O)C2CCCN(S(=O)(=O)c3ccc(C)cc3)C2)c1` (centres undefined), with 25.1 µM [falling, single point].
For `O=C(O)CCC(=O)c1ccc(-c2ccccc2)cc1` the value was 12.6 µM [falling, partial curve]; for `CNc1sc(C(=O)c2cccs2)c(N)c1-c1nc2ccccc2s1`, 20 µM [falling, partial curve]; for `Cc1cccc(NC(=O)COc2ccc3oc4c(c3c2)CCCC4)c1`, 15.8 µM [falling, partial curve].
As for `Cn1c(CN2CCOCC2)nc2cc(NC(=O)c3ccccc3Cl)ccc21`, the AC50 was 31.6 µM [falling, partial curve].
Then `CCCN1Cc2cccc(C(=O)Nc3ccc4c(c3)OCCO4)c2C1=O`, with 0.631 µM [rising, full curve]; and `Cc1ccc(N2CC(C(=O)NCc3nnnn3-c3ccc(C)c(C)c3)CC2=O)cc1` (centres undefined), with 39.8 µM [falling, single point].
Then `Cc1csc(SCC(=O)Nc2ccc(Cl)cn2)n1`, with 15.8 µM [falling, partial curve]; and `CCCCOc1ccc(C(=O)Nc2ccc3c(c2)CCCN3S(=O)(=O)c2ccc(C)cc2)cc1`, with 6.31 µM [falling, partial curve].
Then `O=C(NCc1ccccn1)c1nn(-c2ccccc2F)nc1CO`, with 25.1 µM [falling, single point].
Turning to `CCOc1ccccc1CN1CCc2nc(Nc3ccccc3)ncc2C1`, the AC50 is 39.8 µM [falling, single point].
Then `Fc1ccc(-n2ncc3c(N4CCN(Cc5ccccc5)CC4)ncnc32)cc1`, with 20 µM [falling, partial curve, poor fit].
Take `COc1cccc(CNC(=O)CSc2n[nH]c(-c3ccccc3Cl)n2)c1`: the AC50 is 20 µM [falling, partial curve].
For `CCc1ccc(CNC(=O)c2ccc3c(c2)nc2n3CCCCC2)cc1` the value was 15.8 µM [falling, partial curve].
Consider `COc1ccc(OC)c(CCNC(=O)CN2C(=O)COc3ccc(S(=O)(=O)N4CCCCCC4)cc32)c1`, for which the AC50 is 39.8 µM [falling, single point].
Then `COc1cccc(CNC(=O)CCNS(=O)(=O)c2ccc3c(c2)CCCC(=O)N3)c1`, with 0.501 µM [falling, full curve]; and `O=C(Nc1c2c(nn1-c1ccc(Cl)cc1)CS(=O)(=O)C2)c1cccc(Cl)c1`, with 39.8 µM [falling, single point].
Then `O=C(CSc1ccc2nnc(CCNS(=O)(=O)c3ccccc3)n2n1)Nc1ccccc1C(F)(F)F`, with 0.794 µM [rising, full curve, poor fit]; and `CCc1cccc(NC(=O)CN2c3ccccc3S(=O)(=O)c3ccccc32)c1`, with 12.6 µM [falling, partial curve]; and `O=C(c1ccc(F)cc1)n1nc(-c2ccc(Cl)cc2)nc1NCc1ccco1`, with 10 µM [falling, partial curve].
In the case of `COc1ccccc1NC(=O)Cn1nc(C)n2cccc2c1=O`, the AC50 is 12.6 µM [falling, partial curve].
Consider `Cc1ccc(CNC(=O)Cn2ccn(-c3cc(C)cc(C)c3)c(=O)c2=O)cc1`, for which the AC50 was 39.8 µM [falling, single point].
Take `CCn1c(SCC(=O)Nc2nc(-c3ccc(C)cc3)cs2)nnc1-c1ccccc1O`: the AC50 was 2.51 µM [falling, full curve].
Then `O=C(CSc1nc2ccccc2nc1Cc1ccccc1)N1CCCc2ccccc21`, with 39.8 µM [falling, single point]; and `CCc1cc2c(=O)n(Cc3ccco3)c(SCC(=O)N3CCCc4ccccc43)nc2s1`, with 10 µM [falling, partial curve]; and `CCc1ccc2occ(CC(=O)N(Cc3ccc(N(C)C)cc3)C3CCS(=O)(=O)C3)c2c1` (centres undefined), with 15.8 µM [falling, partial curve].
For `CCOC(=O)c1cccc(NC(=O)c2sc3nc[nH]c(=O)c3c2C)c1` the value was 39.8 µM [falling, single point]; for `Cc1oc(-c2ccc(Cl)cc2)nc1CN1CCCC(C(=O)NCc2ccco2)C1` (centres undefined), 12.6 µM [falling, partial curve].
Then `O=Nc1ccc(Nc2ccccc2)cc1`, with 5.01 µM [falling, partial curve]; and `CCc1nnc(NC(=O)CSc2nc3c([nH]c4ccccc43)c(=O)n2-c2ccc(OC)cc2)s1`, with 1 µM [rising, full curve]; and `CCCCn1c(NC(=O)CC)c(C#N)c2nc3ccccc3nc21`, with 25.1 µM [falling, single point].
For `Cc1ccc2cc3c(N)c(C(=O)N4CCOCC4)sc3nc2c1`, the AC50 was 12.6 µM [falling, partial curve].
Then `O=C(C1CCCCC1)N(Cc1cccnc1)c1nc2ccc(F)cc2s1`, with 20 µM [falling, partial curve]; and `COc1ccc2[nH]c3c(=O)n(CCCCC(=O)N4CCCC4)c(=S)[nH]c3c2c1`, with 12.6 µM [falling, partial curve]; and `COc1ccc(N2CCN(CC(=O)Nc3nnc(-c4ccccc4)s3)CC2)cc1`, with 15.8 µM [falling, partial curve].
For `COc1cc(-c2nnc(COc3ccc4ccccc4c3)o2)cc(OC)c1OC` the value was 7.94 µM [falling, full curve, poor fit]; for `CC(=O)c1cccc(Nc2nc(-c3ccccc3Cl)nc3ccccc23)c1`, 3.16 µM [falling, full curve].
